Values from PubChem BioAssay AID652272 (Drosophila RNAi Screening Center, 2013)

- Screen: 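Finding fly genes that regulate Hedgehog signal transduction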 (primary screen)
- Cell system: Drosophila clone 8 (Cl8) cells
- Reagent: long dsRNA against Drosophila genes
- Measured: 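Plate reader light from a firefly reporter under a ptc promoter fragment that responds to Hedgehog, with Renilla light as transfection reference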
- Reading the numbers: firefly Hh reporter signal: higher = more ptc reporter light; Renilla reference signal: higher = more Renilla control light
- Call rule: 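Called a hit if the two-replicate mean z-score lies below -2 or above +3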
- Calls: active = hit: reporter lowered or raised; inactive = not a hit
The screen tested about 21,000 reagents; this is a random part of those with a known target gene and a result. In the full data, 503 (2.4%) got an active call. 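Raw plate light values, not normalised; calls rest on replicate z-scores that were not deposited; hits include reporter decreases as well as increases.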 A number with no mark means an inactive call. The numbers tell different reagents against one gene apart. A plus sign joins genes that one reagent is predicted to hit. Not given: the amount of reagent, the time to read-out.

no.	Gene	reagent no.	firefly Hh reporter signal, replicate 1	firefly Hh reporter signal, replicate 2	firefly Hh reporter signal, replicate 3	Renilla reference signal, replicate 1	Renilla reference signal, replicate 2
1	Dyrk2 (Dual-specificity tyrosine phosphorylation-regulated kinase 2)	1	61265	96152		3104	3850
2	eIF4E7 (eukaryotic translation initiation factor 4E7)	1	97517	2.53e5		3126	10913
3	eIF4E7 (eukaryotic translation initiation factor 4E7)	2	84405	2.15e5		1831	6160
4	CG10903	1	72520	1.04e5		3264	3224
5	Tsp42Er (Tetraspanin 42Er)	1	77474	43872		2176	4374
6	Cpr30F (Cuticular protein 30F)	1	87796	86016		3397	3157
7	CG6937 + btn	1	4.48e5	88385		21810	2299
8	CG14454	1	90665	72192		2917	2150
9	Osi2 (Osiris 2)	1	90915	70769		3830	2214
10	TwdlC (TweedleC)	1	84672	86123		3162	2509
11	CG8004	1	71867	71376		3440	2962
12	CG13689	1	1.04e5	84136		2812	2065
13	lilli (lilliputian)	1	72624	6.85e5	76869	3085	34520
14	CG42246	1	4.29e5	1.16e5		24362	3069
15	Trmt61 (tRNA methyltransferase 61)	1	4.59e5	1.21e5		22294	3483
16	mRpS28 (mitochondrial ribosomal protein S28)	1	1.33e5	67508		3360	4475
17	Lipt1 (Lipoyltransferase 1)	1	1.11e5	2.13e5		3019	8496
18	CG12128	1	75472	77156		3605	3645
19	CG34015	1	8.57e5	3.11e5		50944	7077
20	CG4053	1	86130	1.85e5		2306	5218

The list goes on, starting with the last 2 of the part before.
no.	Gene	reagent no.	firefly Hh reporter signal, replicate 1	firefly Hh reporter signal, replicate 2	firefly Hh reporter signal, replicate 3	Renilla reference signal, replicate 1	Renilla reference signal, replicate 2
19	CG34015	1	8.57e5	3.11e5		50944	7077
20	CG4053	1	86130	1.85e5		2306	5218
21	CG15888	1	94343	55632		3568	1683
22	p23	1	1.41e5	89505		5361	2999
23	sals (sarcomere length short)	1	1.45e5	1.08e5		5312	4283
24	sals (sarcomere length short)	2	72836	1.22e5		2438	3251
25	CG9121	1	1.06e5	48928		2619	4477
26	Sap30 (SIN3-associated polypeptide 30)	1	77430	2.35e5		3174	8231
27	sona (sol narae)	1	69069	65891		1665	5045
28	sona (sol narae)	2	70497	50727		2178	5312
29	sona (sol narae)	3	74978	52473		2512	5297
30	Ufl1 (UFM1 specific ligase 1)	1	1.24e5	82921		4614	3243
31	Rac2	1	43692	72674		5831	5360
32	Obp46a (Odorant-binding protein 46a)	1	75281	69344		1768	5285
33	phr6-4 ((6-4)-photolyase)	1	91488	61163		2672	4944
34	a10 (antennal protein 10)	1	1.05e5			5570	3197
35	Uros2 (Uroporphyrinogen III synthase 2)	1	1.01e5	81058		3458	2231
36	CG2991	1	88572	49946		4155	2588
37	CG7492	1	85242	43031		4208	1984
38	CG1965	1	2.05e5	8.43e5	1.48e5	7800	49524
39	Pgant2 (Polypeptide N-Acetylgalactosaminyltransferase 2)	1	1.45e5	88691		2837	8428
40	mh (maternal haploid)	1	47040	1.59e5		953	6538
41	nAChRalpha6 (nicotinic Acetylcholine Receptor alpha6)	1	5.48e5	1.74e5		27712	8154
42	nAChRalpha6 (nicotinic Acetylcholine Receptor alpha6)	2	3.03e5	92096		14866	4513
43	nAChRalpha6 (nicotinic Acetylcholine Receptor alpha6)	3	1.28e5	83849		4633	3090
44	CG17739	1	79762	52251		3456	2332
45	Ube4B (Ubiquitination factor E4B)	1	84834	51946		3268	2048
46	CG6454	1	1.14e5	1.27e5		4524	4467
47	GstZ1 (Glutathione S transferase Z1)	1	1.41e5	91051		5088	3684
48	CG34253 + lncRNA:CR32194	1	1.91e5			5383	
49	CG32407	1	55264	43750		6436	3072
50	pAbp (poly(A) binding protein)	1	60384	39814		3385	2072
51	CG30428	1	94757	2.29e5		2594	9302
52	CG31661	1	90509	65088		2134	1632
53	yellow-d	1	86535	64342		1991	6423
54	Eip93F (Ecdysone-induced protein 93F)	1	59057	3.39e5		11776	8133
55	Eip93F (Ecdysone-induced protein 93F)	2	7.91e5	1.67e5		42212	17171
56	Octbeta2R (Octopamine beta2 receptor)	1	41225	2.55e5		10641	5545
57	Octbeta2R (Octopamine beta2 receptor)	2	99672	1.19e5		3049	3385
58	Octbeta2R (Octopamine beta2 receptor)	3	86432	1.05e5		2535	3027
